Source: PubChem BioAssay AID540256 (National Center for Advancing Translational Sciences (NCATS), 2011)
Out of some 300,000 compounds screened, about 3,700 (1.2%) were called active. The inconclusive results got no clear call from the source; some entries with a clear call stand among them for comparison. Calls follow the shape of the full dose curve; tested in HEK293 cells. Potencies of inconclusive entries are doubtful fits and often do not repeat.

assay: qHTS for Inhibitors of binding or entry into cells for Lassa Virus; conditions: Lassa virus pseudotype entry inhibition, cell reporter; activity change, negative = inhibition: at 37.9 µM (top of the series) unless noted; also: nearly all actives have a fitted effect of over 50% in size
% is scaled to controls: 0 for no effect and ±100 for the full control effect; potency is read from the fitted curve at half-maximal effect.

Question: Which activity change, negative = inhibition does the source give for CCN(CC(=O)Nc1c(F)cccc1F)C(=O)c1ccc(=O)n(Cc2ccccc2)n1 here?
Answer: inconclusive: 9.35% [activator]

Question: With CC(C)N=C1NN=C(c2ccc(Cl)c(Cl)c2)CS1 as the compound, how does the Potency read?
Answer: inactive

Question: Which Potency does the source give for Cc1ccc(N2CCN(c3ncccc3[N+](=O)[O-])CC2)c(C)c1 here?
Answer: inconclusive: 5.01 µM [inhibitor, single point]

Question: For C/C=C(/C)C(=O)OC1c2c(ccc3ccc(=O)oc23)OC(C)(C)C1OC(C)=O (stereo not drawn), which Potency is on record?
Answer: inconclusive: 12.6 µM [inhibitor, single point]

Question: For c1ccc(CN=C2Nc3ccccc3CS2)nc1, which Potency is on record?
Answer: inconclusive: 3.55 µM [activator, partial curve, poor fit]

Question: Which Potency does the source give for O=[N+]([O-])c1cc2oc3c(c2c(C=NCc2ccccc2)c1O)CCCC3 here?
Answer: inconclusive: 1.26 µM [inhibitor, single point]

Question: For O=C(NCCc1nc2ccccc2[nH]1)c1ccc(Cl)c([N+](=O)[O-])c1, which Potency is on record?
Answer: inactive

Question: For CC(C)c1ccc(/C=C/C(=O)NCCCc2ccccc2)cc1, which Potency is on record?
Answer: inactive

Question: With O=C(c1cc2nc(-c3ccco3)cc(C(F)(F)F)n2n1)N1CCCc2ccccc21 as the compound, how does the Potency read?
Answer: inactive

Question: For O=C(C1CC(c2ccc(F)cc2)=NO1)N1CCC2(CC1)OCCO2 (stereo not drawn), which Potency is on record?
Answer: inconclusive: 29.1 µM [activator, single point]

Question: For O=C(Nc1ccccn1)c1ccc(S(=O)(=O)N2CCCC2)cc1, which Potency is on record?
Answer: inconclusive: 35.5 µM [inhibitor, single point]

Question: With O=C(CCc1c[nH]c2ccccc12)N1CCN(S(=O)(=O)c2ccc(F)cc2)CC1 as the compound, how does the Potency read?
Answer: inconclusive: 35.5 µM [inhibitor, single point]

Question: For O=C(CCCc1ccccc1)Nc1ccccn1, which Potency is on record?
Answer: inactive

Question: With Cc1ccc(-n2nnc(-c3nc(-c4cccs4)no3)c2N)c(C)c1 as the compound, how does the Potency read?
Answer: inactive

Question: With O=S(=O)(Nc1cccc(C(F)(F)F)c1)c1ccc(-c2cnc(C3CC3)o2)cc1 as the compound, how does the Potency read?
Answer: inconclusive: 1 µM [inhibitor, full curve, poor fit]

Question: Which Potency does the source give for Cc1noc(/C=C/c2ccco2)c1S(=O)(=O)N1CCC(C(=O)NCc2ccco2)CC1 here?
Answer: inactive

Question: With CC(NC(=O)c1cc(COc2cccc(C(F)(F)F)c2)on1)c1nccs1 (stereo not drawn) as the compound, how does the Potency read?
Answer: inactive

Question: Which Potency does the source give for CC(C)(C)c1nc(N2CCN(C(=O)c3ccco3)CC2)c2nnn(Cc3ccccc3Cl)c2n1 here?
Answer: inconclusive: 35.5 µM [inhibitor, single point]

Question: For CCOc1ccccc1C(O)C1=CC(=O)c2ccccc2C1=O (stereo not drawn), which Potency is on record?
Answer: inactive

Question: Which Potency does the source give for Nc1ccc(Sc2ccccc2)nc1 here?
Answer: inactive

Question: With CCOC(=O)CSc1nnc2n(-c3ccccc3)c(=O)c3c4c(sc3n12)CC(C(C)(C)C)CC4 (stereo not drawn) as the compound, how does the Potency read?
Answer: inactive

Question: For O=C(NC(Cc1ccccc1)C(=O)N1CCN(c2ccccc2O)CC1)c1ccccc1 (stereo not drawn), which Potency is on record?
Answer: inconclusive: 12.6 µM [inhibitor, partial curve, poor fit]

Question: With CC(C)(C)NC(=O)CSc1nc2ccccc2c(=O)[nH]1 as the compound, how does the Potency read?
Answer: inactive

Question: With CC(=O)Nc1sc(N/N=C/c2ccccc2)nc1-c1ccc(C)cc1 as the compound, how does the Potency read?
Answer: inactive

Question: Which Potency does the source give for COC(=O)CC[C@@H](C(=O)O)N1C(=O)c2ccccc2C1=O here?
Answer: inconclusive: 3.55 µM [activator, single point]

Question: With O=C(C=Cc1ccco1)c1ccc2ccccc2c1 as the compound, how does the Potency read?
Answer: inconclusive: 35.5 µM [inhibitor, single point]

Question: With CCOC(=O)c1nnn(-c2nonc2-n2cccc2)c1CCl as the compound, how does the Potency read?
Answer: inactive

Question: For CCC(C)c1ccccc1N1CC(C(=O)Nc2ccc(S(=O)(=O)N3CCOCC3)cc2)CC1=O (stereo not drawn), which Potency is on record?
Answer: inactive

Question: Which Potency does the source give for CC(C)CC(C)c1cc(N)nc2nc3ccccc3n12 (stereo not drawn) here?
Answer: inconclusive: 35.5 µM [inhibitor, partial curve, poor fit]

Question: For COc1ccccc1NC(=O)CC(c1cc(OC)c(OC)c(OC)c1)N1Cc2ccccc2C1=O (stereo not drawn), which Potency is on record?
Answer: inactive

Question: For Cc1cccc(-n2cnc3c(sc4nc(N5CCOCC5)c5c(c43)CCCC5)c2=O)c1, which Potency is on record?
Answer: inconclusive: 35.5 µM [inhibitor, single point]

Question: For Cc1ccc(N/N=C(\Cc2nc3ccccc3[nH]2)c2ccccc2)cc1, which Potency is on record?
Answer: inconclusive: 1.12 µM [inhibitor, partial curve, poor fit]

Question: With COc1ccc(C2CC2/C(=N/O)c2ccccc2)cc1 (stereo not drawn) as the compound, how does the Potency read?
Answer: inconclusive: 10 µM [inhibitor, partial curve, poor fit]

Question: For Cc1nc(SCC(=O)N2c3ccccc3NC(=O)CC2C)c2c(C)c(C)sc2n1 (stereo not drawn), which Potency is on record?
Answer: inconclusive: 25.1 µM [inhibitor, single point]

Question: Which Potency does the source give for CN(C)c1cccc(C(=O)N/N=C/c2ccoc2)c1 here?
Answer: inconclusive: 0.1 µM [activator, full curve, poor fit]

Question: Which Potency does the source give for CC(=O)Oc1ccc(Cl)cc1CN(C(C)=O)C1CCCCC1 here?
Answer: inconclusive: 35.5 µM [inhibitor, partial curve, poor fit]

Question: Which Potency does the source give for CN(C1CCCCC1)S(=O)(=O)c1ccc(NC(=O)CCC(=O)O)cc1 here?
Answer: inactive

Question: Which Potency does the source give for CC(C)CCNC(=O)c1ccc2c(SCC(=O)O)c3c(nc2c1)CCC3 here?
Answer: inconclusive: 6.51 µM [inhibitor, partial curve, poor fit]

Question: With COc1ccccc1CCNC(=O)C(=O)NCCC1CCCCN1S(=O)(=O)c1cccs1 (stereo not drawn) as the compound, how does the Potency read?
Answer: inconclusive: 11.2 µM [inhibitor, partial curve]

Question: Which Potency does the source give for C=CCNC(=S)N/N=C/c1ccc(-c2ccc(Br)cc2)o1 here?
Answer: inactive

Question: For O=C(CNC(=O)c1ccc2c(c1)OCCO2)N/N=C/c1ccc(Cl)cc1, which Potency is on record?
Answer: inactive

Question: For O=C(Nc1ncc(Cl)cc1Cl)c1c(F)cccc1Cl, which Potency is on record?
Answer: inactive

Question: With CC(C)(C)OC(=O)N/N=C\c1cccnc1 as the compound, how does the Potency read?
Answer: inactive

Question: With O=C(c1ccccc1)c1c[nH]cc1-c1ccccc1 as the compound, how does the Potency read?
Answer: inactive

Question: For C[C@H](NC(=O)c1ccco1)C(=O)NNC(=O)c1ccc(F)cc1, which Potency is on record?
Answer: inactive

Question: For COCCC(=O)N1CCC(Oc2ccc(C(=O)N3C[C@H]4CC[C@H]3C4)cc2)CC1, which Potency is on record?
Answer: inconclusive: 5.62 µM [inhibitor, single point]

Question: Which Potency does the source give for COc1ccc(OC)c(CNC(=O)C2CCN(c3nc4ccccc4nc3C(F)(F)F)CC2)c1 here?
Answer: inactive

Question: For Clc1ccc(C(c2ccccc2)c2c[nH]c3ccccc23)s1 (stereo not drawn), which Potency is on record?
Answer: inactive

Question: Which Potency does the source give for O=C(NC(CC1=CCCCC1)c1ccccc1)C(F)(F)F (stereo not drawn) here?
Answer: inconclusive: 5.96 µM [activator, single point]

Question: For O=C(CN(C(=O)Cn1nnc(-c2cccs2)n1)c1cnc2ccccc2c1)NCC1CCCO1 (stereo not drawn), which Potency is on record?
Answer: inactive

Question: Which Potency does the source give for CCOC(=O)c1ccc(N/C=C/C(=O)C(C)(C)C)cc1 here?
Answer: inconclusive: 8.91 µM [inhibitor, partial curve, poor fit]

Question: Which Potency does the source give for Cc1ccc(C)c(S(=O)(=O)N2CCN(C(=O)c3cc(-c4cccs4)nn3-c3ccccc3)CC2)c1 here?
Answer: inconclusive: 17.8 µM [inhibitor, single point]

Question: For O=C(COC(=O)C1CC2C=CC1C2)Nc1cccc(S(=O)(=O)N2CCCCC2)c1 (stereo not drawn), which Potency is on record?
Answer: inconclusive: 20 µM [inhibitor, single point]

Question: Which Potency does the source give for CC(C)c1ccc(C(=O)OCC(=O)c2c(N)n(C)c(=O)n(C)c2=O)cc1 here?
Answer: inconclusive: 15.8 µM [inhibitor, single point]

Question: With CCn1cc(C(=O)NCCCN2CCCC(C)C2)c(=O)c2cc(S(=O)(=O)N3CCc4ccccc4C3)ccc21 (stereo not drawn) as the compound, how does the Potency read?
Answer: inconclusive: 15.8 µM [inhibitor, single point]

Question: Which Potency does the source give for C=CCSc1nccc(-c2cc(Cl)sc2Cl)n1 here?
Answer: inconclusive: 7.94 µM [activator, partial curve, poor fit]

Question: With O=c1oc2cc(Br)ccc2n1CSC1=NCCS1 as the compound, how does the Potency read?
Answer: inactive

Question: For Cc1cccn2c(=O)c(C=O)c(Sc3ncccn3)nc12, which Potency is on record?
Answer: inconclusive: 35.5 µM [inhibitor, partial curve, poor fit]

Question: Which Potency does the source give for COc1ccc(N(CC(=O)Nc2cccc(N(C)S(C)(=O)=O)c2)S(C)(=O)=O)cc1OC here?
Answer: inactive

Question: With O=C(NCCN1CCCCC1)Nc1ccc(F)cc1 as the compound, how does the Potency read?
Answer: inconclusive: 0.112 µM [activator, full curve, poor fit]

Question: With COc1ccc(C(=O)Nc2ccc(-n3nncc3-c3ccccc3)cc2)cc1OC as the compound, how does the Potency read?
Answer: inconclusive: 35.5 µM [activator, single point]

Question: For Cc1cccn2c(CNCC3(c4ccccc4)CCCC3)c(C(=O)N3CCOCC3)nc12, which Potency is on record?
Answer: inconclusive: 4.47 µM [inhibitor, full curve, poor fit]

Question: For Cc1ccc(/C=C(\C#N)C(=O)NCC2CCCO2)o1 (stereo not drawn), which Potency is on record?
Answer: inactive

Question: Which Potency does the source give for COC(=O)c1cccc(NC(=O)/C=C/c2ccc([N+](=O)[O-])cc2)c1 here?
Answer: inactive

Question: Which Potency does the source give for Nc1cc(=O)[nH]c(SCC(=O)Nc2cc(Cl)cc(Cl)c2)n1 here?
Answer: inconclusive: 20 µM [activator, partial curve, poor fit]

Question: Which Potency does the source give for COc1cc(OC)cc(-c2cc3nc(C)c(CCC(=O)NCc4ccc(Cl)cc4)c(C)n3n2)c1 here?
Answer: inconclusive: 14.1 µM [inhibitor, single point]

Question: Which Potency does the source give for COc1ccc(NC(=O)Nc2ccc(Br)cn2)cc1OC here?
Answer: inconclusive: 16.4 µM [activator, partial curve]

Question: Which Potency does the source give for C(=C\c1nnc(-c2cccs2)o1)/c1ccccc1 here?
Answer: inconclusive: 29.1 µM [inhibitor, single point]

Question: For Cc1cc2n(n1)C(c1ccccc1Cl)Nc1ccccc1-2 (stereo not drawn), which Potency is on record?
Answer: inconclusive: 18.3 µM [activator, single point]

Question: With Cc1ccc(Cc2cnc(NC(=O)/C(C#N)=C/c3ccc(-c4cccc([N+](=O)[O-])c4)o3)s2)cc1 as the compound, how does the Potency read?
Answer: inconclusive: 0.82 µM [activator, full curve, poor fit]

Question: Which Potency does the source give for CC(C)(C)N=C1NC(=NC(C)(C)C)c2ccccc21 here?
Answer: inconclusive: 7.3 µM [inhibitor, partial curve]

Question: With O=C1/C(=C/c2ccncc2)SC(=S)N1C1CCS(=O)(=O)C1 (stereo not drawn) as the compound, how does the Potency read?
Answer: inactive

Question: With COc1ccc2c(c1)Sc1ccccc1N2CCN(C)C as the compound, how does the Potency read?
Answer: inconclusive: 10 µM [inhibitor, partial curve, poor fit]
